In publication doi:10.1101/2024.01.16.575949:

T1: Halo-FAM60A (full length) (UniProt Q9NP50)
T1 sequence: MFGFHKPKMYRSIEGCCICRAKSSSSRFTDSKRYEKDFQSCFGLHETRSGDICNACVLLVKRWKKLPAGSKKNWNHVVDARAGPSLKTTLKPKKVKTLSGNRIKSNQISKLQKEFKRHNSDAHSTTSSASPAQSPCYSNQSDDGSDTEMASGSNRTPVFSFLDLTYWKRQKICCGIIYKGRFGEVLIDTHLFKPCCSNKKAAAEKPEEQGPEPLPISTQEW


Target: T1, Halo-FAM60A (full length)
Test: affinity purification with mass spectrometry

| binding | Binder |
| --- | --- |
| binds | SRSF6 (endogenous) (protein, UniProt Q13247 1-344) MPRVYIGRLSYNVREKDIQRFFSGYGRLLEVDLKNGYGFVEFEDSRDADDAVYELNGKELCGERVIVEHARGPRRDRDGYSYGSRSGGGGYSSRRTSGRDKYGPPVRTEYRLIVENLSSRCSWQDLKDFMRQAGEVTYADAHKERTNEGVIEFRSYSDMKRALDKLDGTEINGRNIRLIEDKPRTSHRRSYSGSRSRSRSRRRSRSRSRRSSRSRSRSISKSRSRSRSRSKGRSRSRSKGRKSRSKSKSKPKSDRGSHSHSRSRSKDEYEKSRSRSRSRSPKENGKGDIKSKSRSRSQSRSNSPLPVPPSKARSVSPPPKRATSRSRSRSRSKSRSRSRSSSRD |
| binds | SRSF7 (endogenous) (protein, UniProt Q16629 1-238) MSRYGRYGGETKVYVGNLGTGAGKGELERAFSYYGPLRTVWIARNPPGFAFVEFEDPRDAEDAVRGLDGKVICGSRVRVELSTGMPRRSRFDRPPARRPFDPNDRCYECGEKGHYAYDCHRYSRRRRSRSRSRSHSRSRGRRYSRSRSRSRGRRSRSASPRRSRSISLRRSRSASLRRSRSGSIKGSRYFQSPSRSRSRSRSISRPRSSRSKSRSPSPKRSRSPSGSPRRSASPERMD |
| binds | SRSF5 (endogenous) (protein, UniProt Q13243 1-272) MSGCRVFIGRLNPAAREKDVERFFKGYGRIRDIDLKRGFGFVEFEDPRDADDAVYELDGKELCSERVTIEHARARSRGGRGRGRYSDRFSSRRPRNDRRNAPPVRTENRLIVENLSSRVSWQDLKDFMRQAGEVTFADAHRPKLNEGVVEFASYGDLKNAIEKLSGKEINGRKIKLIEGSKRHSRSRSRSRSRTRSSSRSRSRSRSRSRKSYSRSRSRSRSRSRSKSRSVSRSPVPEKSQKRGSSSRSKSPASVDRQRSRSRSRSRSVDSGN |
| binds | SRSF4 (endogenous) (protein, UniProt Q08170 1-494) MPRVYIGRLSYQARERDVERFFKGYGKILEVDLKNGYGFVEFDDLRDADDAVYELNGKDLCGERVIVEHARGPRRDGSYGSGRSGYGYRRSGRDKYGPPTRTEYRLIVENLSSRCSWQDLKDYMRQAGEVTYADAHKGRKNEGVIEFVSYSDMKRALEKLDGTEVNGRKIRLVEDKPGSRRRRSYSRSRSHSRSRSRSRHSRKSRSRSGSSKSSHSKSRSRSRSGSRSRSKSRSRSQSRSRSKKEKSRSPSKEKSRSRSHSAGKSRSKSKDQAEEKIQNNDNVGKPKSRSPSRHKSKSKSRSRSQERRVEEEKRGSVSRGRSQEKSLRQSRSRSRSKGGSRSRSRSRSKSKDKRKGRKRSREESRSRSRSRSKSERSRKRGSKRDSKAGSSKKKKKEDTDRSQSRSPSRSVSKEREHAKSESSQREGRGESENAGTNQETRSRSRSNSKSKPNLPSESRSRSKSASKTRSRSKSRSRSASRSPSRSRSRSHSRS |

Results are given in words; binding and its absence hold for the method and conditions named. In cells and extracts the contact can be indirect. A yes stands for co-enrichment or nearness to the bait. Other partners may have been found.
